Data as given in the supplement of paper PMC12823440, “Inhibitors supercharge kinase turnover through native proteolytic circuits” (Nature, 2025).
The other results are listed elsewhere or left out. The calls rarely recur for the same compound in another form.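 In K562 cells expressing nanoluciferase-fused kinases, luminescence was recorded at 4 h intervals between 2 and 18 h, normalized as percent of control with DMSO at 100% and a positive control at 0%. A significant (2 sigma) signal drop marks a time point as decreased. The authors' rule for a hit is not shown and takes in more than the number of time points.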

By UniProt entry, the sequences of proteins in these tests, tags left out. Where a name states a change or a piece, a line headed by the entry shows the natural chain unless it says otherwise.
UniProt O75460: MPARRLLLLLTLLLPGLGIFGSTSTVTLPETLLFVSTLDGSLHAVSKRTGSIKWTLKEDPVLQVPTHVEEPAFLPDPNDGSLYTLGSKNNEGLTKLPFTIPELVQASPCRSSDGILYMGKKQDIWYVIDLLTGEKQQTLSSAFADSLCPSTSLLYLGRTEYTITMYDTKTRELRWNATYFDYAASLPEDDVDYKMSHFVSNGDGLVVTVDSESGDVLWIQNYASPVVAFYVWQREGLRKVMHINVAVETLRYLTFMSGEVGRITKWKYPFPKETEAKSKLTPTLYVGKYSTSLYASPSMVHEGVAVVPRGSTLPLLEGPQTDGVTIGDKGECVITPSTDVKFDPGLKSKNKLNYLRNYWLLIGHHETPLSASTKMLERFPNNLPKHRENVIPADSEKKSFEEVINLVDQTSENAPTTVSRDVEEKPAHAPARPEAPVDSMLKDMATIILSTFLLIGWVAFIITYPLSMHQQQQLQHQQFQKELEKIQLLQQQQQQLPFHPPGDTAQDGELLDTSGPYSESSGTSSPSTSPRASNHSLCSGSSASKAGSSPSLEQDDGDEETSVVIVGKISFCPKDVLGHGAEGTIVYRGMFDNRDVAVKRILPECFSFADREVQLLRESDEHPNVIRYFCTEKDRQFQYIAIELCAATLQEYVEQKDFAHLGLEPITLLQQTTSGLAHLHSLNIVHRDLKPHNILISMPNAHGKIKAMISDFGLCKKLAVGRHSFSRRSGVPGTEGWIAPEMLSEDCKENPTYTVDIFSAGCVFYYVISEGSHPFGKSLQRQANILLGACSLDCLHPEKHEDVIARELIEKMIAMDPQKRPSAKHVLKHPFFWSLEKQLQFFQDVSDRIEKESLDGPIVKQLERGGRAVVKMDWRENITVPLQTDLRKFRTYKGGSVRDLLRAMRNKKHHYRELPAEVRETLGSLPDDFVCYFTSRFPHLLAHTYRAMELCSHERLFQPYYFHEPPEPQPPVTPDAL
UniProt P11362, whole entry, looked up: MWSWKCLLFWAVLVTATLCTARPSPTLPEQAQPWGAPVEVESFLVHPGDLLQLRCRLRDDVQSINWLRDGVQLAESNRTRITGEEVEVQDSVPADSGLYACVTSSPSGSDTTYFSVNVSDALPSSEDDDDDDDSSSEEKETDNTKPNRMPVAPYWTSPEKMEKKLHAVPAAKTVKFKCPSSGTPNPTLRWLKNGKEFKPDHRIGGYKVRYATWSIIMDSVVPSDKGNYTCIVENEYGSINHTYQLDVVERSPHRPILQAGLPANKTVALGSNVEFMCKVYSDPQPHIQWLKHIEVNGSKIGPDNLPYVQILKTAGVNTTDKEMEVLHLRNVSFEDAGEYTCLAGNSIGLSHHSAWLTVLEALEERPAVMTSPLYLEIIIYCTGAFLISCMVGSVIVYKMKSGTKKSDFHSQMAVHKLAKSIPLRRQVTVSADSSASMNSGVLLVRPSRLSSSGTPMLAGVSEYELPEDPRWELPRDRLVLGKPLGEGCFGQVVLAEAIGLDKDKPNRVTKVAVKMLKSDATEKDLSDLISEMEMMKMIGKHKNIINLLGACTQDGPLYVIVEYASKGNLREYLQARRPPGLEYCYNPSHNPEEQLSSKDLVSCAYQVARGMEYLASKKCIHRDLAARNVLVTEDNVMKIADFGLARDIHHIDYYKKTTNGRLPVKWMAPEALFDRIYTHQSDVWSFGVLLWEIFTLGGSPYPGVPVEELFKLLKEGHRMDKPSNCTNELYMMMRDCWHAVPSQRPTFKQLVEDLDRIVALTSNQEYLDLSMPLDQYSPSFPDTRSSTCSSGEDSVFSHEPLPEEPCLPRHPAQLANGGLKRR
UniProt P22607, whole entry, looked up: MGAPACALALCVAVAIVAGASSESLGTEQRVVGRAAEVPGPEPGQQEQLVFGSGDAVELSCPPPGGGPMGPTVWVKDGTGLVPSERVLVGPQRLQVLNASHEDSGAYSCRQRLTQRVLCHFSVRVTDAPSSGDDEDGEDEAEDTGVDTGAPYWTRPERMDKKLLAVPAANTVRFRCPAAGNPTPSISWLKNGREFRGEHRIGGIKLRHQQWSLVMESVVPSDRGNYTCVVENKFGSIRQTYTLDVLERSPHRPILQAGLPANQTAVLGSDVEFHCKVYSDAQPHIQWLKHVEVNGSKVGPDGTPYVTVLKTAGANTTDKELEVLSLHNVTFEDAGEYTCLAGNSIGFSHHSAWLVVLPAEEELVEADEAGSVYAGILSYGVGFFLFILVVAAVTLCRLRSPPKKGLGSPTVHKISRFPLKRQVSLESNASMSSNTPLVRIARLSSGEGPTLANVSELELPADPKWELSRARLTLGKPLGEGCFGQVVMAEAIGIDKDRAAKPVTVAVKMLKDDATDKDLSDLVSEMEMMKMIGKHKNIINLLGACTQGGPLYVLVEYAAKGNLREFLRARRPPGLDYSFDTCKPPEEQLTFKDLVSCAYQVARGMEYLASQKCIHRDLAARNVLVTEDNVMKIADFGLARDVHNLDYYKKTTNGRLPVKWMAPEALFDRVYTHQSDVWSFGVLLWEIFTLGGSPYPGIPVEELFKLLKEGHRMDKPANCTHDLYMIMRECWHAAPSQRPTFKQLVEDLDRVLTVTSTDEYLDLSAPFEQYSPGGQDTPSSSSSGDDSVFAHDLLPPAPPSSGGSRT
UniProt P36888, whole entry: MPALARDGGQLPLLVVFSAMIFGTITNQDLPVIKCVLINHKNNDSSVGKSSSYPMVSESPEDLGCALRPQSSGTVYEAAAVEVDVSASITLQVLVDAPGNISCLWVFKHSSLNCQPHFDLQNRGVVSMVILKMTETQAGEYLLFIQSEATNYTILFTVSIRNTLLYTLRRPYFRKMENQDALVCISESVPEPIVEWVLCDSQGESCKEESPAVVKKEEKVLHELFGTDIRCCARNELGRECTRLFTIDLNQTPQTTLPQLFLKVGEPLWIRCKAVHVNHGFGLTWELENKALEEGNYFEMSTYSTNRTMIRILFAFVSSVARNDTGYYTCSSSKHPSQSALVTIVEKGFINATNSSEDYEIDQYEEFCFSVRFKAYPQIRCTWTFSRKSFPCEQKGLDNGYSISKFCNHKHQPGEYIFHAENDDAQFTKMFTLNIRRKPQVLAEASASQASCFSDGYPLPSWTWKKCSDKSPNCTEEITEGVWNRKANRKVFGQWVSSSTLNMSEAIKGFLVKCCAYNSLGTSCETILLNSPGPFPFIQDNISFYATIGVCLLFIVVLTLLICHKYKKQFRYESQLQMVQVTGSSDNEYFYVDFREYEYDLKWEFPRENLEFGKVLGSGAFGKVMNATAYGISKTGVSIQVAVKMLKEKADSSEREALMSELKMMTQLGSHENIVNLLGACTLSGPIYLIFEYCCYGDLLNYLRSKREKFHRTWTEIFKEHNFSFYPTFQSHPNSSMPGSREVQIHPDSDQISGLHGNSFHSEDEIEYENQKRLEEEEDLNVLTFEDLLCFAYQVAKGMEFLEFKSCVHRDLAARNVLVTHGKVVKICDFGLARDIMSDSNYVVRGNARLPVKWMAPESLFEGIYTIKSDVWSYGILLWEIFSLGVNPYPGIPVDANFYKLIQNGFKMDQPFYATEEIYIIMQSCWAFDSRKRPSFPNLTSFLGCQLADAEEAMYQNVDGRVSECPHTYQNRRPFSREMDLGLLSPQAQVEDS
UniProt P06241, whole entry, looked up: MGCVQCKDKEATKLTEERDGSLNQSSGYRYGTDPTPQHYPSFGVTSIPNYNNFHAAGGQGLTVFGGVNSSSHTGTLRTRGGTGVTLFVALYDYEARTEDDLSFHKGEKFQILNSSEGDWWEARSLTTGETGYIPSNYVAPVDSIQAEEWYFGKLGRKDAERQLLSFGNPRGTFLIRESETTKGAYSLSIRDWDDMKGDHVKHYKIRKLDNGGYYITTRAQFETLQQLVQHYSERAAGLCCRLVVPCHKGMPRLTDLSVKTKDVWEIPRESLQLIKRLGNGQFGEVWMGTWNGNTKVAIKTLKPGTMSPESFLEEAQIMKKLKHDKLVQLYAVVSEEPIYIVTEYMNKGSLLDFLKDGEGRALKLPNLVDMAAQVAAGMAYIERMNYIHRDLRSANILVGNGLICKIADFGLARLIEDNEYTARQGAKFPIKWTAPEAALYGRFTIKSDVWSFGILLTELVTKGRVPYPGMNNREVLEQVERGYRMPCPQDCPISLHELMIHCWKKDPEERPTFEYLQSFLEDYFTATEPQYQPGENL
UniProt P49840: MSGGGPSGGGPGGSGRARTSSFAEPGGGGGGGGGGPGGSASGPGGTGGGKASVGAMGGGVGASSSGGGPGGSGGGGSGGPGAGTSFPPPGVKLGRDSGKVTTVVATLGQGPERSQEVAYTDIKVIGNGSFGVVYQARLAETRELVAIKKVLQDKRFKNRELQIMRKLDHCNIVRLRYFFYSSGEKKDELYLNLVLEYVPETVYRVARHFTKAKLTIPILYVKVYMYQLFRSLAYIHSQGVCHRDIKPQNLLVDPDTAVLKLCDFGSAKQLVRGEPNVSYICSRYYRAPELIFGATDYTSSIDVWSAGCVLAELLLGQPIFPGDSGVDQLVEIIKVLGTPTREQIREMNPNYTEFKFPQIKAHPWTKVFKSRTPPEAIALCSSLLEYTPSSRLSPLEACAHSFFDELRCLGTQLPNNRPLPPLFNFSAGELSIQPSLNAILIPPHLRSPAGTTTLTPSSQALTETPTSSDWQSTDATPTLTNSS
UniProt P14616: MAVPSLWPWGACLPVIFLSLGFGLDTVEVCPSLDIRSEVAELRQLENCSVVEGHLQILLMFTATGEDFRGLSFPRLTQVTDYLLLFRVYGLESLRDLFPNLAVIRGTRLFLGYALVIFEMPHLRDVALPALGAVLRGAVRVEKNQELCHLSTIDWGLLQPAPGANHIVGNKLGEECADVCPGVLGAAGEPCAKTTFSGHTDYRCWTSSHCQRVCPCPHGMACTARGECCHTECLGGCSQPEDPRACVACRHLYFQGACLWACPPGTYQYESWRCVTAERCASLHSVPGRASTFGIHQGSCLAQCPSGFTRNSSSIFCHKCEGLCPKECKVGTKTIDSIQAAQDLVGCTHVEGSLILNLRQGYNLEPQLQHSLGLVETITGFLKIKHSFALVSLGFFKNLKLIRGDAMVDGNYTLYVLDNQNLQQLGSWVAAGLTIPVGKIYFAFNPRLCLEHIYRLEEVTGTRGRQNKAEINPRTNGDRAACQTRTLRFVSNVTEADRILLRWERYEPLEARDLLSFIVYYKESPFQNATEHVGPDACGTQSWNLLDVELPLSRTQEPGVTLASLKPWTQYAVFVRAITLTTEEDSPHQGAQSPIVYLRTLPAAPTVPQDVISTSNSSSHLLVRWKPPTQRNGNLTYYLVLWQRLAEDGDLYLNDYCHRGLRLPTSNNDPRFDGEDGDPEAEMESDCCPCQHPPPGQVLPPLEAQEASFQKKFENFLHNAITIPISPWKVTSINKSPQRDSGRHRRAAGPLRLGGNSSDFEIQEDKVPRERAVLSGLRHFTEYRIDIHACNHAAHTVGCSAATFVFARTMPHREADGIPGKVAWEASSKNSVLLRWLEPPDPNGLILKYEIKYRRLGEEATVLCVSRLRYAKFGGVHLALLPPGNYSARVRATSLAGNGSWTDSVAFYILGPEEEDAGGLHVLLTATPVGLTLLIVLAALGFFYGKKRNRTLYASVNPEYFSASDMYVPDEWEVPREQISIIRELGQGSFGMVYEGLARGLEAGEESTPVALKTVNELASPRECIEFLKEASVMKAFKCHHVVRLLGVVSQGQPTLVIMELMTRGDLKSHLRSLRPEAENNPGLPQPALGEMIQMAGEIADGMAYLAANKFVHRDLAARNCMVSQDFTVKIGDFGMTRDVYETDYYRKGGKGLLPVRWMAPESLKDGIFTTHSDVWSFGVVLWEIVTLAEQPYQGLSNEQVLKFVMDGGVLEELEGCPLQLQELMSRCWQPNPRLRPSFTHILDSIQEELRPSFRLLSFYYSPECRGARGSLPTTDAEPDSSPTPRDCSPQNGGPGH

Key:
Test in all cases: kinase-Nluc reporter destabilization hit call (1 = scored as downregulated) (binary); higher = compound decreases kinase abundance
Settings in all cases: K562; 2-18 h
[1] = target: ERN1 (UniProt O75460)
[2] = target: FGFR1 (UniProt P11362)
[3] = target: FGFR2 (UniProt P21802)
[4] = target: FGFR3 (UniProt P22607)
[5] = target: FGR (UniProt P09769)
[6] = target: FLT3 (UniProt P36888)
[7] = target: FYN (UniProt P06241)
[8] = target: GSK3A (UniProt P49840)
[9] = target: HER2 (UniProt P04626)
[10] = target: INSRR (UniProt P14616)

Measured: kinase-Nluc reporter destabilization hit call

CCNC(=O)C#Cc1ccc2c(C(=Nc3ccc(CN(C)C)cc3)c3ccccc3)c(O)[nH]c2c1 (2.5 µM)
inactive: [1] 0 | [2] 0 | [3] 0 | [4] 0 | [5] 0 | [6] 0 | [7] 0 | [8] 0 | [9] 0 | [10] 0

Oc1c(F)cc(-c2cnccc2-c2ccc(N3CCOCC3)cc2)cc1F (10 µM)
inactive: [1] 0 | [2] 0 | [3] 0 | [4] 0 | [5] 0 | [6] 0 | [7] 0 | [8] 0 | [9] 0 | [10] 0

O=C(Nc1cc(Cl)cc2c1[nH]c1cnccc12)c1cccnc1 (10 µM)
inactive: [1] 0 | [2] 0 | [3] 0 | [4] 0 | [5] 0 | [6] 0 | [7] 0 | [8] 0 | [9] 0 | [10] 0

3 structures already listed, sorted by formula weight, high to low:
CCNC(=O)C#Cc1ccc2c(C(=Nc3ccc(CN(C)C)cc3)c3ccccc3)c(O)[nH]c2c1 (2.5 µM)
inactive: [1] 0 | [2] 0 | [3] 0 | [4] 0 | [5] 0 | [6] 0 | [7] 0 | [8] 0 | [9] 0 | [10] 0

Oc1c(F)cc(-c2cnccc2-c2ccc(N3CCOCC3)cc2)cc1F (10 µM)
inactive: [1] 0 | [2] 0 | [3] 0 | [4] 0 | [5] 0 | [6] 0 | [7] 0 | [8] 0 | [9] 0 | [10] 0

O=C(Nc1cc(Cl)cc2c1[nH]c1cnccc12)c1cccnc1 (10 µM)
inactive: [1] 0 | [2] 0 | [3] 0 | [4] 0 | [5] 0 | [6] 0 | [7] 0 | [8] 0 | [9] 0 | [10] 0

Further compounds follow:

C#Cc1cccc(Nc2ncnc3cc(OC)c(NC(=O)N4C[C@H]5CCN(C)[C@H]5C4)cc23)c1 [Theliatinib] (10 µM)
inactive: [1] 0 | [2] 0 | [3] 0 | [4] 0 | [5] 0 | [6] 0 | [7] 0 | [8] 0 | [9] 0 | [10] 0

NC(=O)c1ccc(N(C(N)=O)c2c(F)cccc2F)nc1-c1ccc(F)cc1F (10 µM)
inactive: [1] 0 | [2] 0 | [3] 0 | [4] 0 | [5] 0 | [6] 0 | [7] 0 | [8] 0 | [9] 0 | [10] 0

COc1cc(-c2cc(OP(=O)(O)O)cc(-c3cc(OC)c(OC)c(OC)c3)c2)cc(OC)c1OC [Stafia-1] (10 µM)
inactive: [1] 0 | [2] 0 | [3] 0 | [4] 0 | [5] 0 | [6] 0 | [7] 0 | [8] 0 | [9] 0 | [10] 0

N#Cc1cnc2c(Cl)cc(NCc3cn(CCN4CCCCCC4)nn3)cc2c1Nc1ccc(F)c(Cl)c1 [Cot inhibitor-1] (10 µM)
inactive: [1] 0 | [2] 0 | [3] 0 | [4] 0 | [5] 0 | [6] 0 | [7] 0 | [8] 0 | [9] 0 | [10] 0

NS(=O)(=O)c1ccc(Nc2nc(-c3cccc(-c4ccccc4)c3)c3[nH]cnc3n2)cc1 (10 µM)
inactive: [1] 0 | [2] 0 | [3] 0 | [4] 0 | [5] 0 | [6] 0 | [7] 0 | [8] 0 | [9] 0 | [10] 0

CN1CCN(c2ccc(Nc3ncc4cc(C#N)c(=O)n(C5CCCC5)c4n3)cc2)CC1 (10 µM)
inactive: [1] 0 | [2] 0 | [3] 0 | [4] 0 | [5] 0 | [6] 0 | [7] 0 | [8] 0 | [9] 0 | [10] 0

Cc1cccc(-c2[nH]ncc2-c2ccnc3ccccc23)n1 (10 µM)
inactive: [1] 0 | [2] 0 | [3] 0 | [4] 0 | [5] 0 | [6] 0 | [7] 0 | [8] 0 | [9] 0 | [10] 0

C[C@@H](Nc1ncnc2[nH]c(-c3ccc(O)cc3)cc12)c1ccccc1 (2.5 µM)
inactive: [1] 0 | [2] 0 | [3] 0 | [4] 0 | [5] 0 | [6] 0 | [7] 0 | [8] 0 | [9] 0 | [10] 0

Fc1ccc2[nH]ccc2c1-c1nc(N2CCOCC2)c2sc(CN3CCN(CC4CC4)CC3)cc2n1 (10 µM)
inactive: [1] 0 | [2] 0 | [3] 0 | [4] 0 | [5] 0 | [6] 0 | [7] 0 | [8] 0 | [9] 0 | [10] 0

NC1(C(=O)NCCCn2cc(-c3ccc(OC(F)(F)F)cc3)c3cc(CN4CCN(Cc5c(Cl)cccc5Cl)CC4)ccc32)CCNCC1 (2.5 µM)
inactive: [1] 0 | [2] 0 | [3] 0 | [4] 0 | [5] 0 | [6] 0 | [7] 0 | [8] 0 | [9] 0 | [10] 0

Brc1ccc(CSc2nc3ccccc3o2)cc1 [BMP signaling agonist sb4] (10 µM)
inactive: [1] 0 | [2] 0 | [3] 0 | [4] 0 | [5] 0 | [6] 0 | [7] 0 | [8] 0 | [9] 0 | [10] 0

O=C(NCCO)c1cc(C(=O)NCCO)cc(C(=O)NCCO)c1 (10 µM)
inactive: [1] 0 | [2] 0 | [3] 0 | [4] 0 | [5] 0 | [6] 0 | [7] 0 | [8] 0 | [9] 0 | [10] 0

NCC1CCC(CNc2nc(NCc3ccccc3OC(F)(F)F)ncc2[N+](=O)[O-])CC1 (stereo not given) [PKC-theta inhibitor] (10 µM)
active: [2] 1
inactive: [1] 0 | [3] 0 | [4] 0 | [5] 0 | [6] 0 | [7] 0 | [8] 0 | [9] 0 | [10] 0

O=C(NCCN1CCOCC1)Nc1nc2ccc(Sc3nnc4ccc(-c5ccc(F)cc5)nn34)cc2s1 (10 µM)
inactive: [1] 0 | [2] 0 | [3] 0 | [4] 0 | [5] 0 | [6] 0 | [7] 0 | [8] 0 | [9] 0 | [10] 0

Nc1nc(NCCNc2ncc(-n3ccnc3)c(-c3ccc(Cl)cc3Cl)n2)ccc1[N+](=O)[O-] (2.5 µM)
inactive: [1] 0 | [2] 0 | [3] 0 | [4] 0 | [5] 0 | [6] 0 | [7] 0 | [8] 0 | [9] 0 | [10] 0

CC1=C(C(=O)Nc2cc3cn[nH]c3cc2F)C(c2ccc(C(F)(F)F)cc2)CC(=O)N1 (stereo not given) (10 µM)
inactive: [1] 0 | [2] 0 | [3] 0 | [4] 0 | [5] 0 | [6] 0 | [7] 0 | [8] 0 | [9] 0 | [10] 0

Cc1cc(C(=O)NC(C)(C)C)cc(C#Cc2ccc3c4c(oc3c2)C(C)(C)c2cc(NS(C)(=O)=O)ccc2C4=O)n1 (10 µM)
inactive: [1] 0 | [2] 0 | [3] 0 | [4] 0 | [5] 0 | [6] 0 | [7] 0 | [8] 0 | [9] 0 | [10] 0

Cc1cc(C)cc(NC(N)=Nc2ccccc2C(F)(F)F)c1 (10 µM)
inactive: [1] 0 | [2] 0 | [3] 0 | [4] 0 | [5] 0 | [6] 0 | [7] 0 | [8] 0 | [9] 0 | [10] 0

O=C(ON=C1c2ccccc2-c2nc3ccccc3nc21)c1ccco1 (2.5 µM)
inactive: [1] 0 | [2] 0 | [3] 0 | [4] 0 | [5] 0 | [6] 0 | [7] 0 | [8] 0 | [9] 0 | [10] 0

CC(Sc1nc2c(cnn2-c2cccc(Cl)c2)c(=O)[nH]1)C(N)=O (stereo not given) (10 µM)
inactive: [1] 0 | [2] 0 | [3] 0 | [4] 0 | [5] 0 | [6] 0 | [7] 0 | [8] 0 | [9] 0 | [10] 0

Nc1nc(N)c2nc(-c3cccc(O)c3)c(-c3cccc(O)c3)nc2n1 (10 µM)
inactive: [1] 0 | [2] 0 | [3] 0 | [4] 0 | [5] 0 | [6] 0 | [7] 0 | [8] 0 | [9] 0 | [10] 0

O=C1OC(/C=C/c2ccccc2)=NC/1=C\c1cccnc1 (10 µM)
inactive: [1] 0 | [2] 0 | [3] 0 | [4] 0 | [5] 0 | [6] 0 | [7] 0 | [8] 0 | [9] 0 | [10] 0

COc1cc2ncnc(Nc3cccc(I)c3)c2cc1OC (2.5 µM)
inactive: [1] 0 | [2] 0 | [3] 0 | [4] 0 | [5] 0 | [6] 0 | [7] 0 | [8] 0 | [9] 0 | [10] 0

Nc1nc2c(nc(Br)n2[C@@H]2O[C@@H]3COP(=O)(O)O[C@H]3[C@H]2O)c(=O)[nH]1 [8-Bromo-cGMP (sodium)] (10 µM)
inactive: [1] 0 | [2] 0 | [3] 0 | [4] 0 | [5] 0 | [6] 0 | [7] 0 | [8] 0 | [9] 0 | [10] 0

N[C@@H]1CCCN(c2c(/C=C3\SC(=O)NC3=O)cccc2-c2ccccc2)C1 (10 µM)
inactive: [1] 0 | [2] 0 | [3] 0 | [4] 0 | [5] 0 | [6] 0 | [7] 0 | [8] 0 | [9] 0 | [10] 0

Cn1c2cc([S+](C)[O-])sc2c2cnn(Cc3cccc(N)c3)c(=O)c21 (stereo not given) (2.5 µM)
inactive: [1] 0 | [2] 0 | [3] 0 | [4] 0 | [5] 0 | [6] 0 | [7] 0 | [8] 0 | [9] 0 | [10] 0

Cc1cc(CSc2ccccc2C(=O)NCCNc2ccc(C(F)(F)F)cc2[N+](=O)[O-])on1 (10 µM)
inactive: [1] 0 | [2] 0 | [3] 0 | [4] 0 | [5] 0 | [6] 0 | [7] 0 | [8] 0 | [9] 0 | [10] 0
